The results in this text go back to publication PMC7375819.

Protein sequences, listed by entry. Tags and fused reporters are not part of them.
UniProt P49951: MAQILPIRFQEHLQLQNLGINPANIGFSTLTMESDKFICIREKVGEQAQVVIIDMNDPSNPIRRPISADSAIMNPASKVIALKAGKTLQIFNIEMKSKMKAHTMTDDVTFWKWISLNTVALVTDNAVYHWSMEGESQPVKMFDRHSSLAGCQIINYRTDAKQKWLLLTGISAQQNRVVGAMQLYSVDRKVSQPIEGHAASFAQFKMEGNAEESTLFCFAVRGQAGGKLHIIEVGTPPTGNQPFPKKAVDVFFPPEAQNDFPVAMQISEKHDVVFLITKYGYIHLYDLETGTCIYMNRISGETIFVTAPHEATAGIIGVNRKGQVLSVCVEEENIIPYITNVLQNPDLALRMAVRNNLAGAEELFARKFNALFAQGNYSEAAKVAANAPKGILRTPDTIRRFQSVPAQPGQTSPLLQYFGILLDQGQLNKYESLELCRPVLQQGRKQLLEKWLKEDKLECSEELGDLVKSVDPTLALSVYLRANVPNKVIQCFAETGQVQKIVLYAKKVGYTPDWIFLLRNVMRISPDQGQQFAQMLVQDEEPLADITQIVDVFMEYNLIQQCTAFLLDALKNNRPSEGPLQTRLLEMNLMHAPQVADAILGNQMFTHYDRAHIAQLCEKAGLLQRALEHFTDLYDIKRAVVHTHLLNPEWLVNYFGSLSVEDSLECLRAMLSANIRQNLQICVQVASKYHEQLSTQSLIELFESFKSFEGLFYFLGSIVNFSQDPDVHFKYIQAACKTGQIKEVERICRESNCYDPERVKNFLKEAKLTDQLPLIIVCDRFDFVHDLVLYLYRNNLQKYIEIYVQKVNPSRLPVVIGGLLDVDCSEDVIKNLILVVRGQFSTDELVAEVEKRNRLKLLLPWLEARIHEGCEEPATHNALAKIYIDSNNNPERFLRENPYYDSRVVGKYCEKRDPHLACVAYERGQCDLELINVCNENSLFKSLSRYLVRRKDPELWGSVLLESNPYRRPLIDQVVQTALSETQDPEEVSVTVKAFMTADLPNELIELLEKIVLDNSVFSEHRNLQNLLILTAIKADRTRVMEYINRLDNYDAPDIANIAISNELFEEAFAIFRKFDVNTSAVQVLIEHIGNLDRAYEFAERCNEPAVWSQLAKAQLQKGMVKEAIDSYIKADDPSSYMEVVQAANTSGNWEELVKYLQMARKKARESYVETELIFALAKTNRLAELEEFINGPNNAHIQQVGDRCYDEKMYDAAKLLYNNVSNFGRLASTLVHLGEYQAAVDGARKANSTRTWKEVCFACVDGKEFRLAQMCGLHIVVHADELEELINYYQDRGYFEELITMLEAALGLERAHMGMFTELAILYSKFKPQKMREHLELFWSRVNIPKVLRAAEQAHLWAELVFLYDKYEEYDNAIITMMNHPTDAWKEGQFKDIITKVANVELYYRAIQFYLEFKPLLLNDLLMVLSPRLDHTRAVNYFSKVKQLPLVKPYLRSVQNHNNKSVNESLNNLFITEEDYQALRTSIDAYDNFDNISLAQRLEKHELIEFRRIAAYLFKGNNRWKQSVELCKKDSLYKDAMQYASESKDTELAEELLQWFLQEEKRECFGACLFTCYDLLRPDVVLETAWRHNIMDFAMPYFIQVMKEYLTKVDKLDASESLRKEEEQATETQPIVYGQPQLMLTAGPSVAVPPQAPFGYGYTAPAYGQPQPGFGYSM
UniProt P63009: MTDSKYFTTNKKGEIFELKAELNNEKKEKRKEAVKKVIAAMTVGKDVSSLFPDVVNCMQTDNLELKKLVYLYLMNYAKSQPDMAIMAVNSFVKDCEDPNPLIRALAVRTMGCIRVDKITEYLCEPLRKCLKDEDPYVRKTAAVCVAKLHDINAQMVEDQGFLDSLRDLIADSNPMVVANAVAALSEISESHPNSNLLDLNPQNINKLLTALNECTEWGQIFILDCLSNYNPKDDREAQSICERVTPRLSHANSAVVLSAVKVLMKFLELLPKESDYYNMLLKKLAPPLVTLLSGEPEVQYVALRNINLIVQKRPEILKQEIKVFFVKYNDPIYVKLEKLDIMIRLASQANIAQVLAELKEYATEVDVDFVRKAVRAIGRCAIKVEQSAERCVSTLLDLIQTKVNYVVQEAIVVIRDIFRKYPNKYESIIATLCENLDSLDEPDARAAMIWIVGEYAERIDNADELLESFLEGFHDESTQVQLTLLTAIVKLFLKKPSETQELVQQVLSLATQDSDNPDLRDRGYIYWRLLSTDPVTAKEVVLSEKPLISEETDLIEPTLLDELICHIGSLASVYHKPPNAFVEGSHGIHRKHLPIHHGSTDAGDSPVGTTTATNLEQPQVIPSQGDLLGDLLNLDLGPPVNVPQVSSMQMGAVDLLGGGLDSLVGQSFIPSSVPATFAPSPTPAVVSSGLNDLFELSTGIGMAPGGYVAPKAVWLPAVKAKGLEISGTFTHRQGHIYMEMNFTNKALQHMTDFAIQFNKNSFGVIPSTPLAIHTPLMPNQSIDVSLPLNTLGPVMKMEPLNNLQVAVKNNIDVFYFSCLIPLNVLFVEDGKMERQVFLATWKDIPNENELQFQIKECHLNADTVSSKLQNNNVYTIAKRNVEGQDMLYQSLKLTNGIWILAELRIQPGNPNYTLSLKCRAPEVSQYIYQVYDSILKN

The target of the assay is clathrin heavy chain (Bos taurus (endogenous in cow brain)) (UniProt P49951). Kind of assay: cryo-EM structure; single-particle cryo-EM of natively assembled clathrin-coated vesicles purified from bovine brain in MES buffer pH 6.7 at 4°C; five cage geometries; subparticle refinement of the mini-coat asymmetric vertex (6.3 Å, atomic model PDB 6WCJ) and of hexagonal and pentagonal faces.

No constants are given. Whether binding was seen depends on the method and setting. Some entries that bind do so weakly or less than the wild type.

For the substance “AP2 β2 adaptin (from UniProt P63009 1-937)”, the binding entry was “binds”.
To “clathrin heavy chain (from UniProt P49951 1-1675)” belongs “binds”.
